Like-named read-outs stand apart in the source and are kept apart here. Results are given in words; binding and its absence hold for the method and conditions named. In cells and extracts the contact can be indirect. Here binding means that the protein was enriched with, or labelled near, the bait; the list need not be complete. For some of these results: Where a sequence is shown, tags or fusion partners need not be part of it.
T1: SPECC1L-BirA* (BioID/MS) (UniProt Q69YQ0)
T1 sequence: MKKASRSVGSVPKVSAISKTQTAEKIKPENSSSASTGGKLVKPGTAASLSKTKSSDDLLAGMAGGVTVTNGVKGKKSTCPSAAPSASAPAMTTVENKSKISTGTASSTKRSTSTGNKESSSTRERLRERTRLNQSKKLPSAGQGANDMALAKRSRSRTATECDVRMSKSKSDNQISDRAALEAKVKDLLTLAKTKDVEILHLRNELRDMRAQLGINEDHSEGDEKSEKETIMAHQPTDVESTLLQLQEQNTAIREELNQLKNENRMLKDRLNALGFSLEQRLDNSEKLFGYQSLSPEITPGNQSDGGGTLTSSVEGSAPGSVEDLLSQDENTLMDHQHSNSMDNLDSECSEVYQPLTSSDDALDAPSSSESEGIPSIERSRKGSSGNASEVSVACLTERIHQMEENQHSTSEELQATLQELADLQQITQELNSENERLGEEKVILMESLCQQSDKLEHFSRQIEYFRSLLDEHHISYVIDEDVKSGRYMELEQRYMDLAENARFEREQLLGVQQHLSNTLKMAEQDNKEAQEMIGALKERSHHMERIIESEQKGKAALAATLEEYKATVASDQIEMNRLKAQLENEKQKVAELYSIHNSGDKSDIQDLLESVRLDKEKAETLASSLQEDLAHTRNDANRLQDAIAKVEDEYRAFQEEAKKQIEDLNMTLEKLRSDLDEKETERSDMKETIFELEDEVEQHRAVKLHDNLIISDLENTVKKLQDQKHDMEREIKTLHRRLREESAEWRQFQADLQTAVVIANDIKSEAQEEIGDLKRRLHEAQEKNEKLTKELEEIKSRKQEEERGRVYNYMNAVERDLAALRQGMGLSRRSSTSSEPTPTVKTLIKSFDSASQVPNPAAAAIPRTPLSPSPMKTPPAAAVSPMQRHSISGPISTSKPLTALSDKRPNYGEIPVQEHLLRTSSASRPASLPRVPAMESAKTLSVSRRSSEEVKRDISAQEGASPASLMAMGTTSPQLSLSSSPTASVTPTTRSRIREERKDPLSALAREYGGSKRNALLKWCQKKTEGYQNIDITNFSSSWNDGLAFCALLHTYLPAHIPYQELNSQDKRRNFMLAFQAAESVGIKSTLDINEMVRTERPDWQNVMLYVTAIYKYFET

Chains of the proteins cited; added tags and fusions are not shown. Residues count along the entry.
UniProt O14974: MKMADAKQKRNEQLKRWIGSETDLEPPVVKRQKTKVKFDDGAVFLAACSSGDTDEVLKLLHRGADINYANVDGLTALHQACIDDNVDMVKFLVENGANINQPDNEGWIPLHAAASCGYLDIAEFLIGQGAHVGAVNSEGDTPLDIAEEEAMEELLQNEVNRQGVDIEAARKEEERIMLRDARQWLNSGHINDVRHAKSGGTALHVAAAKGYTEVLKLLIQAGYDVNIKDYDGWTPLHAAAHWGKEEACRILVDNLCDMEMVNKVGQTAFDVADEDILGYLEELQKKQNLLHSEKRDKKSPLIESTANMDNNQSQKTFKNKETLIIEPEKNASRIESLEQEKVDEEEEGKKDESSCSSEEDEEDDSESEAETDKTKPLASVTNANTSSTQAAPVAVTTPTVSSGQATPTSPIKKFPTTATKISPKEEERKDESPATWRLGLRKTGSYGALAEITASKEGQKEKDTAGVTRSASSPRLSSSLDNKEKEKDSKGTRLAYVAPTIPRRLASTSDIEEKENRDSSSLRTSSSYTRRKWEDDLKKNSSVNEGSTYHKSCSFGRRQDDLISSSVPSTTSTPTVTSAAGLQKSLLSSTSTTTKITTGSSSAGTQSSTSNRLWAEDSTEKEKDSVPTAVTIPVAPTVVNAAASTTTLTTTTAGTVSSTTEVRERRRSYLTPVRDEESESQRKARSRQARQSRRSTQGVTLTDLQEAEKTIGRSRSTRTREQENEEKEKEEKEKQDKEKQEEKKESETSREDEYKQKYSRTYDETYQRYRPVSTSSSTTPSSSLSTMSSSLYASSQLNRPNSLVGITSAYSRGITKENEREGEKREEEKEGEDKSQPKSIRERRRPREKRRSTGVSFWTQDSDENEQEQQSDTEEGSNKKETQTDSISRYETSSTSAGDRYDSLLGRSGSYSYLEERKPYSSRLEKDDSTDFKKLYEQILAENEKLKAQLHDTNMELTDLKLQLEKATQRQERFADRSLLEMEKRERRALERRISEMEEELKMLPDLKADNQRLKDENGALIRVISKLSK
UniProt O43795: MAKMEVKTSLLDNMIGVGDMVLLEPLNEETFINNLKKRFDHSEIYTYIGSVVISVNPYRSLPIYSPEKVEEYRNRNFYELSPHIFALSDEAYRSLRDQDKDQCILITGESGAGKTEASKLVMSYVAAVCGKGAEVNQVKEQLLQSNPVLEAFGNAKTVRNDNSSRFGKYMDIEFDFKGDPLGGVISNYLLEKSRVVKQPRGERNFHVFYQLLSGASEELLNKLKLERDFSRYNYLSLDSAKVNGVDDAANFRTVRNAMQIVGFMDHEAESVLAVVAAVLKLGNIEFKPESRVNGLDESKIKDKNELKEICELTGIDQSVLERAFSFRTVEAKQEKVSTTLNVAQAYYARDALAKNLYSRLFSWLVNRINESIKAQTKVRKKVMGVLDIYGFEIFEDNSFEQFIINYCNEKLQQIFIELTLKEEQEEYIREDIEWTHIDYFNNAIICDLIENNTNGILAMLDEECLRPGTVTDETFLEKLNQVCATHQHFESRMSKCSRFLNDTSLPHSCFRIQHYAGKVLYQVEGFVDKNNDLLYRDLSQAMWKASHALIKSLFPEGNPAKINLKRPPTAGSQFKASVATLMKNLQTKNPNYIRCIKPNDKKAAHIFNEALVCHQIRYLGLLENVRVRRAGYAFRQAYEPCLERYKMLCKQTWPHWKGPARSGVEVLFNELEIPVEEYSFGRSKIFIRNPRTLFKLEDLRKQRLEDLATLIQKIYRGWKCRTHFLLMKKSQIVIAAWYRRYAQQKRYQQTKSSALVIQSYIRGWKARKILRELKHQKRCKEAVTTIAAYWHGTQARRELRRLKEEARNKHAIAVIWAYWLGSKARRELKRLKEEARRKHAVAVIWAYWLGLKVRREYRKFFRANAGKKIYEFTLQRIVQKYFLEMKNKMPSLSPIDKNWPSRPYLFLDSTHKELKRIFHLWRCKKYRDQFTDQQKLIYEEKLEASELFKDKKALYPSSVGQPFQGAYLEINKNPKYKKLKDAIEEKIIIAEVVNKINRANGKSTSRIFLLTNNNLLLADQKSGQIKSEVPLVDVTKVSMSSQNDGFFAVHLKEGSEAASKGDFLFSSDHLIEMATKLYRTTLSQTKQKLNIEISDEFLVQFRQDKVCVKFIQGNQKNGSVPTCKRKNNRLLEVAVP
UniProt P31431, residues 19-198: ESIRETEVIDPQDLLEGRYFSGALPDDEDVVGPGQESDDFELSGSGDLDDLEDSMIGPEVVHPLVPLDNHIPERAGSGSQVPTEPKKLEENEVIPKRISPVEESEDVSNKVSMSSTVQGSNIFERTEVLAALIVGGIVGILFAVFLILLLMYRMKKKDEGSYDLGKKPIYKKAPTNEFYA
UniProt Q14247: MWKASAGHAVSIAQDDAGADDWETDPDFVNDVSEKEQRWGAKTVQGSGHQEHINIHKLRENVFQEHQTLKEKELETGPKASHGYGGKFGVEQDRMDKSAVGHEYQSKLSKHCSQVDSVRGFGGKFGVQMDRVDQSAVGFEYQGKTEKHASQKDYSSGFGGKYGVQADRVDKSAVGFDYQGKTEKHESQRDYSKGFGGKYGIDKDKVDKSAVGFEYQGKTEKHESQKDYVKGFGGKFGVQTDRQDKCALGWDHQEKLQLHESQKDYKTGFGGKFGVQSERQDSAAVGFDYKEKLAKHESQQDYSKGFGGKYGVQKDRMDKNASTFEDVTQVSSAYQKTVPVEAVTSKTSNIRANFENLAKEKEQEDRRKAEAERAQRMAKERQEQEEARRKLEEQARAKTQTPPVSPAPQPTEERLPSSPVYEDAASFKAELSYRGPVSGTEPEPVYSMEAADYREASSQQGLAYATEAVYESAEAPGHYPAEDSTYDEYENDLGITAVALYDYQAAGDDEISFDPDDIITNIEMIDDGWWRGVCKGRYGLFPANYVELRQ
UniProt P62140: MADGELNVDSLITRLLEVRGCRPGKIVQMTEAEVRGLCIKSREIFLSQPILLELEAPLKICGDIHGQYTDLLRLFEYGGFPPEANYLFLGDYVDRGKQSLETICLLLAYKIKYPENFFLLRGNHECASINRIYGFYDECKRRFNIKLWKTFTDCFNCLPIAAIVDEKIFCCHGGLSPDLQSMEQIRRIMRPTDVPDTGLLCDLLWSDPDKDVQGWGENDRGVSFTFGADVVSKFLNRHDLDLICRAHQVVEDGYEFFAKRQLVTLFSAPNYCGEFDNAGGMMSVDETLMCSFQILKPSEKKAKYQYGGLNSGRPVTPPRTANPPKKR
UniProt P47756: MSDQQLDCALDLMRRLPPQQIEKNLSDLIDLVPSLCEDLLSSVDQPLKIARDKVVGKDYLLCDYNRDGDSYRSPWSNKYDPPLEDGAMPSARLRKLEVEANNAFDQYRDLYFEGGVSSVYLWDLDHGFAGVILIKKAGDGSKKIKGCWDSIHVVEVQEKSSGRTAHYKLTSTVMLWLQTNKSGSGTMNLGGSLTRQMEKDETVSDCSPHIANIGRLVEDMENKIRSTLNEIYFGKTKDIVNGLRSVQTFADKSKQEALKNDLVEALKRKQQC
UniProt P27816: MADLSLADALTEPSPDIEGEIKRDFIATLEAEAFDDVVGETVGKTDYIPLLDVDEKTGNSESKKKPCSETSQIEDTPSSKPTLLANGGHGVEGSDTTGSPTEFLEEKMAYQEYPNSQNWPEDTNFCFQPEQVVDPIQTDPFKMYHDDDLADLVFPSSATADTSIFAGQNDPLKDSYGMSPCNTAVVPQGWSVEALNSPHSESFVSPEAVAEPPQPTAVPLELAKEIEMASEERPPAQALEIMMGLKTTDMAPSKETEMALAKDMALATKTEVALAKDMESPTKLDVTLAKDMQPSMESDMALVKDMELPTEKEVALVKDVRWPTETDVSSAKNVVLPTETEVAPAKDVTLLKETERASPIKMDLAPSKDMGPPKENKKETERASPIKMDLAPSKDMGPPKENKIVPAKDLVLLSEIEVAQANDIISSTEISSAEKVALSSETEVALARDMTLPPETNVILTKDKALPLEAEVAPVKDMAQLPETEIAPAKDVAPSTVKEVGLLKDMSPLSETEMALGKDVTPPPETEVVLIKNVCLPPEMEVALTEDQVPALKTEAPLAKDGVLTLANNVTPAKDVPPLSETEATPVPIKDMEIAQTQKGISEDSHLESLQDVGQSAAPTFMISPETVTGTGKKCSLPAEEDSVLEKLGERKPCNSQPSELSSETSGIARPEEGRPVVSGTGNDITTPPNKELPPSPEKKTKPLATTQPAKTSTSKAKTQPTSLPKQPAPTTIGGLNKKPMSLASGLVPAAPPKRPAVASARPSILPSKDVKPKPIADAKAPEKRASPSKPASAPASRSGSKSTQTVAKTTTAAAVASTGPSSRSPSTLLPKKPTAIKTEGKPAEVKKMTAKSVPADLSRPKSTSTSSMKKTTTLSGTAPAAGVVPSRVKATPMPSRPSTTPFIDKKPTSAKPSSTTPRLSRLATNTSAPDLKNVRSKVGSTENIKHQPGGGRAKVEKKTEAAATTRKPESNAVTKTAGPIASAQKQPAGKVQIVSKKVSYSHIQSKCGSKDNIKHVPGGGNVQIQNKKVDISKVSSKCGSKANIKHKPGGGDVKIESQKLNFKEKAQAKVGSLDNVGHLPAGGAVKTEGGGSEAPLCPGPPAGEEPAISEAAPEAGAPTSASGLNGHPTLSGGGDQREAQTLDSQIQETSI
UniProt P34741, residues 19-201: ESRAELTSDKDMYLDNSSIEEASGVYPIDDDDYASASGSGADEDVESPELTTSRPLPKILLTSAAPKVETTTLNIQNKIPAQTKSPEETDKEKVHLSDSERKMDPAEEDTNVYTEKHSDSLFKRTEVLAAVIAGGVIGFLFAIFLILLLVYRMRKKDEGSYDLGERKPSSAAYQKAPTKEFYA
UniProt Q9BR76: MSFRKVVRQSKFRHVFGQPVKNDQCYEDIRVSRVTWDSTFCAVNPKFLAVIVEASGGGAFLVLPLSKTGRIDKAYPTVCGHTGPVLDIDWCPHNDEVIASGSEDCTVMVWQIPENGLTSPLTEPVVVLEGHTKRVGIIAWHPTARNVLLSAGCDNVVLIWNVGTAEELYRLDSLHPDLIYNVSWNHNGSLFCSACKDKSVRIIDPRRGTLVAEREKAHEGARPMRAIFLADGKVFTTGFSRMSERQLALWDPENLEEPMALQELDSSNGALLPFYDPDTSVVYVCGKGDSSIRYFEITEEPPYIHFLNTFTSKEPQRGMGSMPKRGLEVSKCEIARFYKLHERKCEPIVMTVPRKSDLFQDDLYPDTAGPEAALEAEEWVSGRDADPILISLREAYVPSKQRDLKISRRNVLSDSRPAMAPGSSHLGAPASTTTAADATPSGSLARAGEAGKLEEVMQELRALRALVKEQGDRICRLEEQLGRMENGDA
UniProt P46109: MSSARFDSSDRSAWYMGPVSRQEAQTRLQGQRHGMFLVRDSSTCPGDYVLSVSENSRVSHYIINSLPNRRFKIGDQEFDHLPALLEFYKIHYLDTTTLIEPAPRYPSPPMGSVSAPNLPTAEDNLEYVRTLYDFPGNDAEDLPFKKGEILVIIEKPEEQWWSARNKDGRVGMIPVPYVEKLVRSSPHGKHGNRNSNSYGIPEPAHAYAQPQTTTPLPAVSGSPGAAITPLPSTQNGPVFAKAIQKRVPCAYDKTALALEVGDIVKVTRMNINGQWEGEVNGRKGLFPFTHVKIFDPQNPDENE
UniProt P46108: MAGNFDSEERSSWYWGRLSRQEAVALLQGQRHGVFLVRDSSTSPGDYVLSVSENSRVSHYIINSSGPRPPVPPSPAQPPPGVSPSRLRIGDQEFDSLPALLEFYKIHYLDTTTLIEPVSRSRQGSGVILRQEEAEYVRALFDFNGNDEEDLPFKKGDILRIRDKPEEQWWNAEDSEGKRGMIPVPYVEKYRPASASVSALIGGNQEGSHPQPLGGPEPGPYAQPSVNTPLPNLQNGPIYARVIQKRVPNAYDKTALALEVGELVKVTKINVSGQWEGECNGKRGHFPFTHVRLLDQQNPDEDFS
UniProt Q9ULV4: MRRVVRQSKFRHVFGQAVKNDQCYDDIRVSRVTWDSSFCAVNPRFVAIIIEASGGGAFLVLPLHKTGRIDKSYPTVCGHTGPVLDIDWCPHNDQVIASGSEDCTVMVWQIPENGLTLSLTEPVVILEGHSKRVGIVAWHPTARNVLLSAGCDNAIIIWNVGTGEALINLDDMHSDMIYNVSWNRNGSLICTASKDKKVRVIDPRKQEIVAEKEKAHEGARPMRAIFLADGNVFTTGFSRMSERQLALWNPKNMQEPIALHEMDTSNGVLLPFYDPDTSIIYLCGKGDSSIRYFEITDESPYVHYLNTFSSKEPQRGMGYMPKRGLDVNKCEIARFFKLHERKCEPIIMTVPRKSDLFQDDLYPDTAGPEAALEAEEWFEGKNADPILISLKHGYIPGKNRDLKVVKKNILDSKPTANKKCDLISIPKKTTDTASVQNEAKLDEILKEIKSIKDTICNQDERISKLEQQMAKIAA

T2: SPECC1L-GFP (UniProt Q69YQ0)
T2 sequence: T1 sequence

T3: BirA*-tagged SPECC1L-ΔCHD (UniProt Q69YQ0)
T3 sequence: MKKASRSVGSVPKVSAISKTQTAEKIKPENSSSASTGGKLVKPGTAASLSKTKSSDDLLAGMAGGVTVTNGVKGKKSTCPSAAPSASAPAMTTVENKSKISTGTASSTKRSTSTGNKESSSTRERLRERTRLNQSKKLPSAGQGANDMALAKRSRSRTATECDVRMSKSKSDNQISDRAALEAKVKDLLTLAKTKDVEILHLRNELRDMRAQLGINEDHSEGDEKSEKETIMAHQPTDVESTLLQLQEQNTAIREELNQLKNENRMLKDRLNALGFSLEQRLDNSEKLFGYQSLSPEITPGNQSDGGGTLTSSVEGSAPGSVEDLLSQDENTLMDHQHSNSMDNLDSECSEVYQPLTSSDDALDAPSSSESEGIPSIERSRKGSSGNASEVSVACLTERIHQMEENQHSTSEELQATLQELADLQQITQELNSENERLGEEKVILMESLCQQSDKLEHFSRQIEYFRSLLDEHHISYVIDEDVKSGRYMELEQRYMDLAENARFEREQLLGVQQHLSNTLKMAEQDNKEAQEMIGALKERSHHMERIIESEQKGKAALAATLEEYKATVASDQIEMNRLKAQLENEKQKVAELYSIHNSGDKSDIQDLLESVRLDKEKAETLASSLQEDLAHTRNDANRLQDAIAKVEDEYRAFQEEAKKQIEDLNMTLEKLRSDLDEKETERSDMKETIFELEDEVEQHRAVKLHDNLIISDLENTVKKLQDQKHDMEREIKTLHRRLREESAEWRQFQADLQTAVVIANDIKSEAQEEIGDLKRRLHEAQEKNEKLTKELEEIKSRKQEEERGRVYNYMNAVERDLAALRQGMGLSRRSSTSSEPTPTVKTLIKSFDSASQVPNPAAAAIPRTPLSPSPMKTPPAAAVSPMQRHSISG

B1: SPECC1 (endogenous, U2OS) (protein, UniProt Q5M775 1-1068)
chain: MRSAAKPWNPAIRAGGHGPDRVRPLPAASSGMKSSKSSTSLAFESRLSRLKRASSEDTLNKPGSTAASGVVRLKKTATAGAISELTESRLRSGTGAFTTTKRTGIPAPREFSVTVSRERSVPRGPSNPRKSVSSPTSSNTPTPTKHLRTPSTKPKQENEGGEKAALESQVRELLAEAKAKDSEINRLRSELKKYKEKRTLNAEGTDALGPNVDGTSVSPGDTEPMIRALEEKNKNFQKELSDLEEENRVLKEKLIYLEHSPNSEGAASHTGDSSCPTSITQESSFGSPTGNQMSSDIDEYKKNIHGNALRTSGSSSSDVTKASLSPDASDFEHITAETPSRPLSSTSNPFKSSKCSTAGSSPNSVSELSLASLTEKIQKMEENHHSTAEELQATLQELSDQQQMVQELTAENEKLVDEKTILETSFHQHRERAEQLSQENEKLMNLLQERVKNEEPTTQEGKIIELEQKCTGILEQGRFEREKLLNIQQQLTCSLRKVEEENQGALEMIKRLKEENEKLNEFLELERHNNNMMAKTLEECRVTLEGLKMENGSLKSHLQGEKQKATEASAVEQTAESCEVQEMLKVARAEKDLLELSCNELRQELLKANGEIKHVSSLLAKVEKDYSYLKEICDHQAEQLSRTSLKLQEKASESDAEIKDMKETIFELEDQVEQHRAVKLHNNQLISELESSVIKLEEQKSDLERQLKTLTKQMKEETEEWRRFQADLQTAVVVANDIKCEAQQELRTVKRKLLEEEEKNARLQKELGDVQGHGRVVTSRAAPPPVDEEPESSEVDAAGRWPGVCVSRTSPTPPESATTVKSLIKSFDLGRPGGAGQNISVHKTPRSPLSGIPVRTAPAAAVSPMQRHSTYSSVRPASRGVTQRLDLPDLPLSDILKGRTETLKPDPHLRKSPSLESLSRPPSLGFGDTRLLSASTRAWKPQSKLSVERKDPLAALAREYGGSKRNALLKWCQKKTQGYANIDITNFSSSWSDGLAFCALLHTYLPAHIPYQELNSQEKKRNLLLAFEAAESVGIKPSLELSEMLYTDRPDWQSVMQYVAQIYKYFET
B2: Syndecan SDC1 (endogenous) (protein, UniProt P18827 23-310)
chain: QIVATNLPPEDQDGSGDDSDNFSGSGAGALQDITLSQQTPSTWKDTQLLTAIPTSPEPTGLEATAASTSTLPAGEGPKEGEAVVLPEVEPGLTAREQEATPRPRETTQLPTTHLASTTTATTAQEPATSHPHRDMQPGHHETSTPAGPSQADLHTPHTEDGGPSATERAAEDGASSQLPAAEGSGEQDFTFETSGENTAVVAVEPDRRNQSPVDQGATGASQGLLDRKEVLGGVIAGGLVGLIFAVCLVGFMLYRMKKKDEGSYSLEEPKQANGGAYQKPTKQEEFYA

Key:
SPECC1L-BirA* (BioID/MS) = molecular target: T1, SPECC1L-BirA* (BioID/MS); experiment: proximity labelling
[1] = molecular target: MYPT1 (endogenous, U2OS) (human (endogenous in U2OS)) (UniProt O14974); experiment: affinity purification with mass spectrometry
SPECC1L-GFP = molecular target: T2, SPECC1L-GFP; experiment: affinity purification with mass spectrometry
[2] = molecular target: T3, BirA*-tagged SPECC1L-ΔCHD; experiment: proximity labelling
[3] = molecular target: T3, BirA*-tagged SPECC1L-ΔCHD; experiment: proximity labelling; remark: listed apart in the source

Row | Molecule | binding (SPECC1L-BirA* (BioID/MS)) | binding [2] | other results
1 | myosin (MYO1B) (endogenous) (from UniProt O43795 1-1136) | binds | – | –
2 | NuMA (nuclear mitotic apparatus) protein (endogenous, U2OS) (from UniProt Q14980 1-2115) | – | – | binding [1]: binds; binding (SPECC1L-GFP): binds
3 | MT polymerase CKAP5 (endogenous) (from UniProt Q14008 1-2032) | – | binds | –
4 | Syndecan SDC4 (endogenous) (from UniProt P31431 19-198) | – | binds | –
5 | cortactin (CTTN) (endogenous) (from UniProt Q14247 1-550) | binds | – | –
6 | PP1β (endogenous, U2OS) (from UniProt P62140 1-327) (enzyme) | – | – | binding [1]: binds
7 | CAPZB (endogenous) (from UniProt P47756 1-272) | – | – | binding [1]: binds; binding (SPECC1L-GFP): binds
8 | Microtubule Associated Protein 4 (endogenous) (from UniProt P27816 1-1152) | binds | binds | –
9 | Syndecan SDC2 (endogenous) (from UniProt P34741 19-201) | – | binds | –
10 | Coronin-1B (endogenous) (from UniProt Q9BR76 1-489) | binds | binds | –
11 | CRKL adaptor protein (endogenous) (from UniProt P46109 1-303) | binds | – | –
12 | CRK adaptor protein (endogenous) (from UniProt P46108 1-304) | binds | – | –
13 | Coronin CORO1C (endogenous) (from UniProt Q9ULV4 1-474) | – | binds | –
14 | B1 | – | – | binding [1]: binds
15 | B2 | – | – | binding [3]: binds

Reference: publication doi:10.1101/2022.09.09.507377
